No constants are given. Whether binding was seen depends on the method and setting. Binding calls can cover weak binding; strength is not graded here. Where a sequence is shown, tags or fusion partners need not be part of it.

B1: Ab5 Fab (His-tagged rabbit/human chimeric anti-C3d Fab) (Fab, V domains shown)
VH: QSLEESGGRLVTPGTPLTLTCTVSGFSLSTYTLGWVRQAPGKGLEYIGWIDSSGSAYYASWAKGRFTISKASSTTVDLKMAGLTTEDTATYFCASGNTGGDPLYYGMDPWGPGTLVTVSS
VL: DPVLTQTPSSTSAAVGGTVTIKCQASQNIGRWLAWYQQKPGQPPKLLIYRASDLASGVPSRFKGSGSGTQFTLTISGVQREDAATYYCLGSYSSSDSAFGGGTEVVVK
notes: Fab with rabbit Vκ/human Cκ/rabbit VH, His-tagged; also called Ab5 (κ)
B2: Ab4 Fab (His-tagged rabbit/human chimeric anti-C3d Fab) (Fab, V domains shown)
VH: QSLEESGGRLVTPGTPLTLTCTVSGFSLSRYTMAWVRQAPGKGLEYIGWIDSSGSTYYASWAKGRFTISKTSSTTVDLKMTSLTTEDTATYFCASGNDGGDPLYYGMDPWGPGTLVTVSS
VL: DGVMTQTPSSTSAAVGGTVTIKCQASQSIRSWLSWYQQKPGQPPKLLIYEASKLASGVPSRFKGSRSGTEYTLAISGVQREDAATYYCLGSIASDDTAFGAGTNVEIK
notes: Fab with rabbit Vκ/human Cκ/rabbit VH, His-tagged; also called Ab4 (κ)
B3: Ab2 Fab (His-tagged rabbit/human chimeric anti-C3d Fab) (Fab, V domains shown)
VH: QSVEESGGRLVTPGTPLTLTCTVSGFSLSSYAMTWVRQAPGKGLEWIGVIGTSGMRYYANWAKGRFTISKTSTTVDLKITSPTTEDTATYFCARANFYVGNDESTDAFDPWGPGTLVTVSS
VL: ALVMTQTPPSLSASVGETVRIRCLASEDIYNTISWYQQKPGKPPTLLIYGASNLKSGVPPRFSGSGSGTDYTLTIGGVQSEDAATYYCLGGYSYSSTGLTFGAGTKVEIK
notes: Fab with rabbit Vκ/human Cκ/rabbit VH, His-tagged; also called Ab2 (κ)
B4: Ab1 Fab (His-tagged rabbit/human chimeric anti-C3d Fab) (Fab, V domains shown)
VH: QSVEESRGRLVTPGTPLTLTCTVSGIDLSSSAITWVRQAPGKGLEWIGMISTDGATYYANWAKGRFTFSKTSTTADLKITSPTTEDTATYFCARGLTNFSIWGPGTLVTVSS
VL: QPVLTQSPSASAALGASAKLTCTLSSAHKTYTIAWYQQQPGESPRYLMLLKSDGSYTRGPGVPDRFSGSSSGADRYLIIPSVQADDEAGYYCGADYNGGYVFGGGTQLTVTG
notes: Fab from the phage display vector pC3C with rabbit Vλ/human Cλ/rabbit VH, His-tagged; also called Ab1 (λ)

The test deals with cynomolgus macaque complement protein C3d (cynomolgus macaque). Nature of the test: flow cytometry; His-tagged Fab on zymosan particles opsonized with cynomolgus macaque serum (C3b/iC3b/C3d); detection AF488 mouse anti-His mAb. Background: A flow cytometer gives signals particle by particle.
Take B1: the binding result is given as “binds”.

As to B2, the binding entry was “binds”.

On to B3, for which the binding entry is on record as “binds”.

With B4, the binding entry was “binds”.

Source of the values: US20260022165A1 (US Dept. of Health and Human Services, published 2026).
